Source: US6528484B1, “Insecticidal protein toxins from Photorhabdus” (priority 1993, dated 2003)

Tested on: 38 kDa W-14 Photorhabdus metalloprotease
Assay: Cleavage of TcbA by Photorhabdus metalloprotease, SDS-PAGE densitometry
Type: biochemical, Photorhabdus luminescens
[1] = 38 kDa protease treatment, 1.5 unit, 37° C., 90 min

Row | Molecule | % of total protein [1] | % of total protein (Control (protease omitted))
1 | TcbAii: W-14 toxin peptide processed from TcbA, SEQ ID NO:53 | 64% | 36%
2 | TcbA: peptide TcbA, SEQ ID NO:12; in Table 24 bioassay lines the TcbA-enriched toxin B complex fraction of W-14 broth | 18% | 58%
3 | TcbAiii: W-14 toxin peptide processed from TcbA, SEQ ID NO:55 (protein) LGTANSLTALFLPQENSKLKGYWRTLAQRMFNLRHNLSIDGQPLSLPLYAKPADPKALLSAAVSASQGGADLPKAPLTIHRFPQMLEGARGLVNQLIQFGSSLLGYSERQDAEAMSQLLQTQASELILTSIRMQDNQLAELDSEKTALQVSLAGVQQRFDSYSQLYEENINAGEQRALALRSESAIESQGAQISRMAGAGVDMAPNIFGLADGGMHYGAIAYAIADGIELSASAKMVDAEKVAQSEIYRRRRQEWKIQRDNAQAEINQLNAQLESLSIRREAAEMQKEYLKTQQAQAQAQLTFLRSKFSNQALYSWLRGRLSGIYFQFYDLAVSRCLMAEQSYQWEANDNSISFVKPGAWQGTYAGLLCGEALIQNLAQMEEAYLKWESRALEVERTVSLAVVYDSLEGNDRFNLAEQIPALLDKGEGTAGTKENGLSLANAILSASVKLSDLKLGTDYPDSIVGSNKVRRIKQISVSLPALVGPYQDVQAMLSYGGSTQLPKGCSALAVSHGTNDSGQFQLDFNDGKYLPFEGIALDDQGTLNLQFPNATDKQKAILQTMSDIILHIRYTIR | 18% | 6%
